PubChem BioAssay AID504791, Drosophila RNAi Screening Center, 2011
Screen: 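Genes whose knock-down strengthens or weakens small-RNA reporter silencing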 (primary screen). Cells: Drosophila S2-derived reporter cells. Reagent: long dsRNA against Drosophila genes, about 150-250 ng dsRNA per well (siRNA assay); about 80-120 ng (miRNA assay). Time to read-out: about 5 days (siRNA assay); about 4 days (miRNA assay). Conditions: copper sulfate induction of reporters: 25 µM (siRNA assay); 200 mM stated (miRNA assay), 1-2 days before reading. Measured: 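Per-well ratio of Renilla over firefly light, expressed relative to that plate's average ratio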. Units: stable assay Renilla, run 1 in luminescence; stable assay firefly, run 1 in luminescence. Hit rule: 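First-pass picks had plate-scaled ratios over 1.5 for the siRNA assay, over 1.6 for the miRNA assay, or under 0.6; two distinct dsRNAs had to score alike on retest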.
In all, the deposit lists about 23,000 reagents; below is a random part of those that have a named target and a result. Over the whole deposit, 199 (0.86%) are marked active. 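Plate-scaled ratios behind the calls are not deposited; printed light signals are raw; many rows marked increased or decreased are still called inactive.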 A plus sign joins genes that one reagent is predicted to hit. Reagent sequences are not shown. The record does not give: the direction of the score.

predicted target	dsRNA	miRNA reporter change	stable assay Renilla, run 1	stable assay firefly, run 1	outcome
CG42583	DRSC22937		4307	3.68e5	inactive
CG15873	DRSC04277		6771	4.41e5	inactive
ENGase	DRSC19952		4798	4.53e5	inactive
ENGase	DRSC19953		5416	5.27e5	inactive
X11L	DRSC19958		5651	4.61e5	inactive
X11L	DRSC19959		5407	5.30e5	inactive
vex	DRSC19481		4428	3.23e5	inactive
vex	DRSC19651		5048	3.67e5	inactive
vex	DRSC21843		9005	6.75e5	inactive
CG17742 (retired record)	DRSC10285		5835	2.48e5	inactive
tweek	DRSC02433		7331	4.31e5	inactive
tweek	DRSC02434		7126	3.81e5	inactive
tweek	DRSC02785		8676	2.07e6	inactive
tweek	DRSC23133		4608	2.78e5	inactive
Uros1	DRSC18191		8517	4.31e5	inactive
Rcd5	DRSC08180		12941	5.38e5	inactive
Cpr65Ec	DRSC11025		6230	4.80e5	inactive
CG30075	DRSC05484		7507	4.41e5	inactive
nudC	DRSC11096	reporter ratio raised past the hit cutoff	6767	2.56e5	active
nudC	DRSC11097		7867	3.64e5	inactive
CG31100	DRSC14453		7922	4.66e5	inactive
CG31100	DRSC14455		6516	5.57e5	inactive
Gr57a	DRSC06401		6240	4.14e5	inactive
Rap1	DRSC08686		10326	3.63e5	inactive
CG1628	DRSC18109		7167	3.73e5	inactive
Sym	DRSC12301		6567	4.11e5	inactive
Gagr	DRSC10441		7472	2.79e5	inactive

Records listed so far whose gene name starts with G or g (2):
predicted target	dsRNA	miRNA reporter change	stable assay Renilla, run 1	stable assay firefly, run 1	outcome
Gr57a	DRSC06401		6240	4.14e5	inactive
Gagr	DRSC10441		7472	2.79e5	inactive

More entries:
predicted target	dsRNA	miRNA reporter change	stable assay Renilla, run 1	stable assay firefly, run 1	outcome
CG3862	DRSC00631		9632	2.37e5	inactive
rk	DRSC03602		6382	3.20e5	inactive
CG30484	DRSC05457		5623	3.52e5	inactive
CG1671	DRSC06617		8429	5.09e5	inactive
lncRNA:CR32690	DRSC22219		9224	6.77e5	inactive
CG7326	DRSC20037		5783	4.44e5	inactive
Csgalnact	DRSC06228		5990	2.96e5	inactive
CG10853	DRSC08164		6332	2.77e5	inactive
Polr1E	DRSC14506		6446	3.11e5	inactive
Polr1E	DRSC15358		10030	4.30e5	inactive
Gga	DRSC18260		8322	4.03e5	inactive
Jon65Aii	DRSC10665		6486	4.68e5	inactive
P32	DRSC06988	reporter ratio raised past the hit cutoff	8931	2.95e5	inactive
Gdh	DRSC16679		10279	5.43e5	inactive
Tb	DRSC15815		6520	4.03e5	inactive
Argk1	DRSC08959		3644	3.17e5	inactive
Argk1	DRSC09668		4900	3.81e5	inactive
Argk1	DRSC10460		8411	4.50e5	inactive
Argk1	DRSC21558		9129	4.06e5	inactive
Argk1	DRSC22665		5471	5.28e5	inactive
Osi12	DRSC12177		7444	4.05e5	inactive
mRRF2	DRSC16143		6846	4.79e5	inactive
CG32532	DRSC19556		6166	3.82e5	inactive
CG32532	DRSC19557		5632	3.53e5	inactive
CG32532	DRSC19558		5588	3.47e5	inactive
CG32532	DRSC21370		8715	5.16e5	inactive
Lamtor3	DRSC02815		7414	5.23e5	inactive
CG12491 + CG34105	DRSC04008		6444	4.27e5	inactive
CG12491 + CG34105	DRSC04124		6000	3.35e5	inactive
Hou	DRSC20001		7851	4.62e5	inactive
Hou	DRSC22347		9454	5.83e5	inactive
